Results are given in words; binding and its absence hold for the method and conditions named. In cells and extracts the contact can be indirect. These calls come from enrichment with a bait or labelling near it, and not all partners need be listed. For part of these data: No binding means not detected with the bait. For part of these data: Where a sequence is shown, tags or fusion partners need not be part of it.
molecular target: T1, myc-BirA-plakophilin 2a (UniProt Q99959); assay: proximity labelling
T1 sequence: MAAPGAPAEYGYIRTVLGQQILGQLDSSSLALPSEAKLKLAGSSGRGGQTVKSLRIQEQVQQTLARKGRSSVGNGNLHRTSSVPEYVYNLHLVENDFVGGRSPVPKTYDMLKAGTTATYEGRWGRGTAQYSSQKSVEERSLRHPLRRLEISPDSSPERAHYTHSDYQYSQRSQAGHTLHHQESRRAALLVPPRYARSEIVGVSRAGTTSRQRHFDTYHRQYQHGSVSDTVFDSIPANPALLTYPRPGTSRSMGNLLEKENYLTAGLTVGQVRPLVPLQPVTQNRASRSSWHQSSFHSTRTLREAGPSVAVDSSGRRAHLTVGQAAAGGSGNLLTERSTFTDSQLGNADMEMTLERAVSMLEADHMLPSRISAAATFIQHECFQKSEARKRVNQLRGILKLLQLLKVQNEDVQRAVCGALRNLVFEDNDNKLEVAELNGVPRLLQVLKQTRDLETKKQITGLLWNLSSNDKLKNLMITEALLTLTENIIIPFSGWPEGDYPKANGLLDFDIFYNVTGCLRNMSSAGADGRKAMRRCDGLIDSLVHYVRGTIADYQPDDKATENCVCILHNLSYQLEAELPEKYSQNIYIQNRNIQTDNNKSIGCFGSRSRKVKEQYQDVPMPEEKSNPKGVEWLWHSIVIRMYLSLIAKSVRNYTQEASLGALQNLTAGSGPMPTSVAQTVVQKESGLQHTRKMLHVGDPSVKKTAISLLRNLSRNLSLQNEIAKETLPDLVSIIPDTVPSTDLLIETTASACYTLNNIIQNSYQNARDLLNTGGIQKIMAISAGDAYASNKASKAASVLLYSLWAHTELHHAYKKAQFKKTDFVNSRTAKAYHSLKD

Amino acid sequences for entries named in this document (tags omitted). A change or cut given only in a name is not applied to a line headed by its entry.
UniProt A0A8I3MR05: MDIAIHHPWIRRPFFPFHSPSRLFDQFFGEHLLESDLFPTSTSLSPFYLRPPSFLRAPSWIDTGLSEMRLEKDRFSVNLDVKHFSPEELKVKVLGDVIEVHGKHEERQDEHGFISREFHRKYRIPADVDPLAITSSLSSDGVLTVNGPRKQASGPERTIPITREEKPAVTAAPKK
UniProt P42929: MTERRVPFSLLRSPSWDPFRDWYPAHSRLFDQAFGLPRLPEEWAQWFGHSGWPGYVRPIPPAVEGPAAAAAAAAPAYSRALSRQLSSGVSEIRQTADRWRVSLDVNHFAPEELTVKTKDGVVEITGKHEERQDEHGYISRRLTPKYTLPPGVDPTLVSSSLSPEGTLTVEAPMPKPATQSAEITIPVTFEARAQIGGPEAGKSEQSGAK
UniProt Q6YKA4: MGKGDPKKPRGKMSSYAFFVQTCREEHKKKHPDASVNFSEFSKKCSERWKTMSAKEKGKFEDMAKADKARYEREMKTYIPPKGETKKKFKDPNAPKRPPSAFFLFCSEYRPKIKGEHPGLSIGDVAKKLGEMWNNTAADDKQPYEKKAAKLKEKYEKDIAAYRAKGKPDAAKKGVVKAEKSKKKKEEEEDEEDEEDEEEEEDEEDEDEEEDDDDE
UniProt A0A8I3P9Q5: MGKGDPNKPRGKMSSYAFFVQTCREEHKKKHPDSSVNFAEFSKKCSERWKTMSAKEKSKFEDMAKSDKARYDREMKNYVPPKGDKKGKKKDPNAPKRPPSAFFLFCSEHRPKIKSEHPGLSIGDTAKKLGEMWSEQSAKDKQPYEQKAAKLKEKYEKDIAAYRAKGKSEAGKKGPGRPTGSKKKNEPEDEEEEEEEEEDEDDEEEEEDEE
UniProt Q02487: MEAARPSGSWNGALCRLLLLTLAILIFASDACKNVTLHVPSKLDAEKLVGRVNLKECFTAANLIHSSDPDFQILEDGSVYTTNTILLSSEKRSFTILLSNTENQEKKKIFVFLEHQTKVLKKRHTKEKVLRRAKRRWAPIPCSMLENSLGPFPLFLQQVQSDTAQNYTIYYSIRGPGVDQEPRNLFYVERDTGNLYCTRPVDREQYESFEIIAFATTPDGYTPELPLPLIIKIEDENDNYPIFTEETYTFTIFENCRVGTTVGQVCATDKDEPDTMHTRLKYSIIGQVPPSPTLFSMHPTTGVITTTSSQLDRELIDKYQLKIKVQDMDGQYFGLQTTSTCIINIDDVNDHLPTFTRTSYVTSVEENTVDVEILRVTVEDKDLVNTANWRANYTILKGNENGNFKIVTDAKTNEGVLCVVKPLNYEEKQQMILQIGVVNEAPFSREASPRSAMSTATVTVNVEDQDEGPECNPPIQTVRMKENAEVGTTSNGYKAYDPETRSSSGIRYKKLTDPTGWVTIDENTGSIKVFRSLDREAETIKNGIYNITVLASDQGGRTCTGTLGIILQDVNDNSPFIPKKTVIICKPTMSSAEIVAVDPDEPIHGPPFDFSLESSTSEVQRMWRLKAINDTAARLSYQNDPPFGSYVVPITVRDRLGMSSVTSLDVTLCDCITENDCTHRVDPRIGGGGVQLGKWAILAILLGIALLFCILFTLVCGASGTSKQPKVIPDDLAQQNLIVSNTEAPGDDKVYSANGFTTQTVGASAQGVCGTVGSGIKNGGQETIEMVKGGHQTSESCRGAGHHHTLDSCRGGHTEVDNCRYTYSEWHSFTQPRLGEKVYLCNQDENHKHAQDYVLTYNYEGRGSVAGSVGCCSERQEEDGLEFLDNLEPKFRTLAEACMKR
UniProt A0A8I3NAW5: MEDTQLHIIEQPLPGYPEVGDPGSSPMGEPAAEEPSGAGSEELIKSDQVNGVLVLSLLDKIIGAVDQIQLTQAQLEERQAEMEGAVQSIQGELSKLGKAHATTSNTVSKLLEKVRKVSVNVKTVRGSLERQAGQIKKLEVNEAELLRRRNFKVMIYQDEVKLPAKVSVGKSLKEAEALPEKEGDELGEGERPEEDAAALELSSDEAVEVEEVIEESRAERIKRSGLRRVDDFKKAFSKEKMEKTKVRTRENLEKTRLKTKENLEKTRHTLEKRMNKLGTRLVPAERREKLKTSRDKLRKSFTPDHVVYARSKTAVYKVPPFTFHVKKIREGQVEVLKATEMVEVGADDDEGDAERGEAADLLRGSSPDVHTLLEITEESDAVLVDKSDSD
UniProt A0A8I3N1D8: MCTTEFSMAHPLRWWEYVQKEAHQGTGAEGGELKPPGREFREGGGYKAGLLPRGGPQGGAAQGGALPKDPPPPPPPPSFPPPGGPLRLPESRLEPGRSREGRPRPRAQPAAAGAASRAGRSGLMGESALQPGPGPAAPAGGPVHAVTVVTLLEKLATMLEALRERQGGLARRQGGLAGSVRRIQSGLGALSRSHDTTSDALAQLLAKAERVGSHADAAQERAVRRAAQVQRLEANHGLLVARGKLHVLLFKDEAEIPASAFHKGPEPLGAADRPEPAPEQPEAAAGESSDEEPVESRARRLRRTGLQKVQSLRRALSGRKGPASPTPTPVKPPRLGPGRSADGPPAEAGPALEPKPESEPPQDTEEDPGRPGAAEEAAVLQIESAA
UniProt A0A8I3PHM6: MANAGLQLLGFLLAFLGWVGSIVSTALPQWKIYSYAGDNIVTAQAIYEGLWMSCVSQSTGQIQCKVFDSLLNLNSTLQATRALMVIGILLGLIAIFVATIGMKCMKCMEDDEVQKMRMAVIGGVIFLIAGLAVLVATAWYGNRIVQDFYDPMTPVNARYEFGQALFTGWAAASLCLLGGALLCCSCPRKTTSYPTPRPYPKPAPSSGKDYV
UniProt A0A8I3NQ19: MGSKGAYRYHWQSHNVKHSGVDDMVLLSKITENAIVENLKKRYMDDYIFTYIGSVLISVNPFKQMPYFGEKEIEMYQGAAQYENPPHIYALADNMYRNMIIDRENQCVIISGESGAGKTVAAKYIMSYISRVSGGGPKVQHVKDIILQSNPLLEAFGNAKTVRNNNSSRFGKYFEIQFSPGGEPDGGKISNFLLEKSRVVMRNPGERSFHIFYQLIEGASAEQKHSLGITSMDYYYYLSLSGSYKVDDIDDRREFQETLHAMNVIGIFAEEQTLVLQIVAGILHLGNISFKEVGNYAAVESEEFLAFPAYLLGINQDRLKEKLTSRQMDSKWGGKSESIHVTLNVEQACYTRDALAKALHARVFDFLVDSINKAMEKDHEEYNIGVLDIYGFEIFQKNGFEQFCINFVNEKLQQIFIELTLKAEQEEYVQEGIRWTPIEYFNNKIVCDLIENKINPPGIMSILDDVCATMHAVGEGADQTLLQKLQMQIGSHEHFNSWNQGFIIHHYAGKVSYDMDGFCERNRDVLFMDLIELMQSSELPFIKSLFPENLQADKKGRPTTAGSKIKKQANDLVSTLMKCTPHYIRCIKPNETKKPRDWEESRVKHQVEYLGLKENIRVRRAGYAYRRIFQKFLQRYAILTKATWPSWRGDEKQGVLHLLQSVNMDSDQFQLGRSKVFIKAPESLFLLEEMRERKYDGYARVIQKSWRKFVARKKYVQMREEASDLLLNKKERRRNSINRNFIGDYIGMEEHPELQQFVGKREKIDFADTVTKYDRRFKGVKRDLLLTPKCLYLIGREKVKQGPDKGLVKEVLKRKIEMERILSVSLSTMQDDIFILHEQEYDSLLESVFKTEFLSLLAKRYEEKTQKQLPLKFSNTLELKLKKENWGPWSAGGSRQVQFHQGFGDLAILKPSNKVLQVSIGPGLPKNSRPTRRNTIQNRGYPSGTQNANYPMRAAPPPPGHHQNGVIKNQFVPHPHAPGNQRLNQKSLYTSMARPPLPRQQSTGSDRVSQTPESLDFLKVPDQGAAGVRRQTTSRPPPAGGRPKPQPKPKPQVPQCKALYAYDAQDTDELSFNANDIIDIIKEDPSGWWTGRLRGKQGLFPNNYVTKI

“HSP CRYAB (from UniProt A0A8I3MR05 1-175)” was tested. Which binding did it give?
The binding was “binds”.

HSP HSPB1 (from UniProt P42929 1-209) was tested. Which binding did it give?
The binding was “binds”.

Which binding does the source give for “high mobility group protein 1 (from UniProt Q6YKA4 1-215)” here?
Its binding is “binds”.

With “high mobility group protein 2 (from UniProt A0A8I3P9Q5 1-210)” as the substance, how does the binding read?
The binding was “binds”.

molecular target: desmocollin 2a-BirA-myc (UniProt Q02487); assay: proximity labelling

For “caveolae associated protein 1 (from UniProt A0A8I3NAW5 1-390)”, which binding is on record?
The binding was “binds”.

With “caveolae associated protein 3 (from UniProt A0A8I3N1D8 1-386)” as the substance, how does the binding read?
Its binding is “binds”.

How did the binding turn out when “claudin 1 (from UniProt A0A8I3PHM6 1-211)” was run?
The binding was “binds”.

For “high mobility group protein 1 (from UniProt Q6YKA4 1-215)”, which binding is on record?
The binding was “binds”.

How did the binding turn out when “high mobility group protein 2 (from UniProt A0A8I3P9Q5 1-210)” was run?
The binding was “binds”.

molecular target: T2, plakoglobin tagged with BirA-myc (PG*; merged data of plakoglobin-BirA-myc and myc-BirA-plakoglobin) (UniProt P14923); assay: proximity labelling
T2 sequence: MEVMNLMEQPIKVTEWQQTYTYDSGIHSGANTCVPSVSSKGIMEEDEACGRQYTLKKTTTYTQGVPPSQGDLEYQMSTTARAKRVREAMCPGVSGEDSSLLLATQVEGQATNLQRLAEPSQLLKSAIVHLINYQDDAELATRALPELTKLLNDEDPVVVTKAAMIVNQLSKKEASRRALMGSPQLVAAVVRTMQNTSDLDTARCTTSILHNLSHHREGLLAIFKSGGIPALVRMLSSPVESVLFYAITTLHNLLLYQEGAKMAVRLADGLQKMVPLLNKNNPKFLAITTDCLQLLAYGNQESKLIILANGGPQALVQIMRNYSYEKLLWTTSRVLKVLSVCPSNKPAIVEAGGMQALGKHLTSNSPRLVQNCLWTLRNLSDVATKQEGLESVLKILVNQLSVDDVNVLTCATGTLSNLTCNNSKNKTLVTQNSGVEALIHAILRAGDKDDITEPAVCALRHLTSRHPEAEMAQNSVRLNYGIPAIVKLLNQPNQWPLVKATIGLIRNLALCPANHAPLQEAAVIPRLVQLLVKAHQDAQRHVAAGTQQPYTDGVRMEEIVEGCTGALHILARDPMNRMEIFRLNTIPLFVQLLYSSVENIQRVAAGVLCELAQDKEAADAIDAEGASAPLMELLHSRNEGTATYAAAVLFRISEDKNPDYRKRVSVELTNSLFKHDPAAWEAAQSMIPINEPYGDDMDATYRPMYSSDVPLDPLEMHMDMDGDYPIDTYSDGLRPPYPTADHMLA

How did the binding turn out when “high mobility group protein 1 (from UniProt Q6YKA4 1-215)” was run?
Its binding is “binds”.

For “high mobility group protein 2 (from UniProt A0A8I3P9Q5 1-210)”, which binding is on record?
The binding was “binds”.

How did the binding turn out when “myosin 1E (from UniProt A0A8I3NQ19 1-1108)” was run?
The binding was “binds”.

molecular target: desmocollin 2a-BirA-myc (UniProt Q02487); assay: condition: only cells confluent for 1 day

For “caveolae associated protein 1 (from UniProt A0A8I3NAW5 1-390)”, which binding is on record?
Its binding is “no binding”.

How did the binding turn out when “caveolae associated protein 3 (from UniProt A0A8I3N1D8 1-386)” was run?
Its binding is “no binding”.

molecular target: desmocollin 2a-BirA-myc (UniProt Q02487); assay: condition: only cells confluent for 5 days

“claudin 1 (from UniProt A0A8I3PHM6 1-211)” was tested. Which binding did it give?
Its binding is “no binding”.
